From PubChem BioAssay AID445 (National Center for Advancing Translational Sciences (NCATS), 2006)
The list shows a part of the results. Shown are side measurements of this screen, not its main read-out; they come without a call. Compounds called inactive in the main read-out are mostly missing here. Words in brackets tell the shape of the fitted curve; partial curves, single points and poor fits give uncertain potencies.

Assay: IkB Signaling
Conditions: ABC-DLBCL IkBa-CBG/CBR dual luciferase ratio (green luciferase fused to IkBa over red control in OCI-Ly3 lymphoma cells), 4 h; measured here: control luc red channel unless noted
How it was run: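 In this assay, an IκBα–CBG68 fusion accumulates when IKK-driven degradation is blocked; native CBR normalizes for cell number. OCI-Ly3 cells were treated 4 h with compound and doxycycline, then green and red light read after Chroma-Glo addition.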

| Compound | AC50 |
| --- | --- |
| CCOc1ccccc1CNC(=O)CCCn1ccc2cc(S(=O)(=O)N3CCCC3)ccc21 | 20 µM [falling, partial curve] |
| Cc1ccc(Cn2cnc3nc4c(cc3c2=O)CC(C)CC4)cc1 (stereo not given) | 0.01 µM [falling, full curve, poor fit] |
| COc1cccc(C(=O)Nc2nnc(S(=O)(=O)N3CCCC3)s2)c1 | 25.1 µM [falling, single point] |
| CC(C)c1ccc(S(=O)(=O)c2cnc(SCC(=O)Nc3ccc4c(c3)OCCO4)[nH]c2=O)cc1 | 6.31 µM [falling, partial curve] |
| Cc1ccc(OCC(=O)Nc2nnc(S(=O)(=O)N3CCCCCC3)s2)cc1 | 0.251 µM [rising, full curve] |
| COc1ccc(CCN(Cc2cc3cccc(C)c3[nH]c2=O)C(=O)N2CCCC2)cc1OC | 15.8 µM [falling, single point] [measured here: IkB-luc green channel] |
| COc1ccc2nc(SCc3nc(N)nc(Nc4ccccc4)n3)[nH]c2c1 | 12.6 µM [falling, partial curve] |
| Oc1ccc(NCc2ccccc2OCc2ccc(Cl)cc2)cc1 | 25.1 µM [falling, partial curve] |
| COC(=O)c1ccccc1NC(=O)N1CCC(N2CCN(Cc3ccc(F)cc3)C(=O)C2=O)CC1 | 1 µM [rising, full curve] |
| Cc1ccc(NC(=O)/C=C\C(=O)N(c2ccc(C(C)C)cc2)C(C(=O)NCc2ccco2)c2ccc(F)cc2)cc1 (stereo not given) | 15.8 µM [falling, partial curve] |
| COc1ccc2c(Sc3ccc(C)cc3)c(C(=O)NC(C)C)[nH]c2c1 | 12.6 µM [falling, partial curve] |
| O=c1oc2ccccc2c(N2CCN(c3ccccc3F)CC2)c1CN1CCCC1 | 39.8 µM [falling, partial curve] |
| Cc1cccc(CNC(=O)Cn2ccc3cc(S(=O)(=O)N4CCCCCC4)ccc32)c1 | 2.51 µM [falling, full curve, poor fit] |
| CCCCSc1nnc(-c2cc(Br)ccc2N)c(=O)[nH]1 | 20 µM [falling, partial curve] |
| CCCc1cc(=O)n2[nH]c(CCc3ccccc3)nc2n1 | 15.8 µM [falling, partial curve] |
| CCCc1cc(=O)oc2cc(C)c3c(-c4ccccc4)coc3c12 | 3.16 µM [rising, full curve, poor fit] |
| Cc1ccc(NC(=O)CC2Nc3ccccc3NC2=O)cc1C (stereo not given) | 0.316 µM [rising, partial curve] |
| CCCNC(=O)CN1C(=O)CSc2ccc(S(=O)(=O)N3CCC(C)CC3)cc21 | 25.1 µM [falling, single point] |
| CCOc1ccc(NC(=O)c2cc(S(=O)(=O)NC3CCCCCC3)ccc2F)cc1 | 25.1 µM [falling, partial curve] |
| Cc1ccccc1-c1noc(-c2ccc(NCc3ccco3)c([N+](=O)[O-])c2)n1 | 3.16 µM [falling, partial curve] |

| Compound | AC50 |
| --- | --- |
| COc1ccc2c(c1)CCc1c(C(=O)Nc3c(C)nn(Cc4ccccc4)c3C)noc1-2 | 10 µM [falling, partial curve] |
| CC(C)(C)NC(=O)c1oc2ccccc2c1NC(=O)c1ccccc1F | 15.8 µM [falling, partial curve] |
| Cc1ccc(S(=O)(=O)Nc2ccc3nc(-c4ccc(F)cc4)oc3c2)cc1 | 25.1 µM [falling, partial curve] |
| COc1cc(NC(=O)Cn2c(=O)ccc3cc(S(=O)(=O)N4CCCC4)ccc32)cc(OC)c1 | 31.6 µM [falling, single point] |
| Cc1ccc(CNC(=O)c2c(C)oc3ncnc(N4CCOCC4)c23)cc1 | 20 µM [falling, single point] |
| COc1ccc(/C=C\c2onc(C)c2S(=O)(=O)N2CCC(C(=O)Nc3cccc(OC)c3)CC2)cc1 | 6.31 µM [falling, partial curve] |
| O=C(CSc1ncnc2c1oc1ccccc12)N1CCCc2ccccc21 | 12.6 µM [falling, partial curve] |
| Cc1cc(C)c2c(CC(=O)N(Cc3ccc(Cl)cc3)Cc3ccco3)coc2c1 | 12.6 µM [falling, partial curve] |
| Cc1c(-c2ccccc2)nc2c(Cl)cccc2c1C(=O)OCC(=O)c1ccc(F)cc1 | 3.98 µM [falling, full curve] |
| COc1cc(OC)c(N(C)C(=O)c2c(C)oc3ncn(CC(C)C)c(=O)c23)cc1Cl | 7.94 µM [rising, single point] |
| CCOc1ccccc1C(=O)N(Cc1sccc1C)C1CCS(=O)(=O)C1 (stereo not given) | 20 µM [falling, partial curve, poor fit] |
| COc1ccc(-c2cc(C(F)(F)F)nc(SCC(=O)NCCc3ccccc3)n2)cc1 | 15.8 µM [rising, partial curve] |
| N#Cc1c(-n2ncnc2-c2ccc(F)cc2)sc2c1CCCCC2 | 0.126 µM [falling, full curve] |
| O=C(CSCc1cnn(-c2ccccc2)c1-n1cccc1)NCc1cccc(Cl)c1 | 6.31 µM [rising, single point] |
| COc1ccc(CC(=O)N2CC3(C)CC2CC(C)(C)C3)cc1OC (stereo not given) | 12.6 µM [falling, partial curve] |
| CSc1ccc(CCNC(=O)c2ccc3c(Cl)c4c(nc3c2)CCCC4)cc1 | 3.16 µM [falling, full curve] |
| CCCSc1ncc(Cl)c(C(=O)Nc2nc3ccc(C)cc3s2)n1 | 31.6 µM [falling, partial curve, poor fit] |
| Cc1ccc(C)c(N2CCN(C(=O)C3CCN(S(=O)(=O)c4c(C)noc4C)CC3)CC2)c1 | 15.8 µM [falling, partial curve] |
| O=C(Cn1cnnn1)OCC(=O)c1ccc(Cl)s1 | 1 µM [falling, full curve] |
| O=C(Nc1cccnc1)c1ccc(Cl)c(S(=O)(=O)N2CCCCCC2)c1 | 12.6 µM [falling, partial curve] |

Given as comma-separated lines: part of the list above
Compound,AC50
O=C(CSc1ncnc2c1oc1ccccc12)N1CCCc2ccccc21,"12.6 µM [falling, partial curve]"
Cc1cc(C)c2c(CC(=O)N(Cc3ccc(Cl)cc3)Cc3ccco3)coc2c1,"12.6 µM [falling, partial curve]"
